Test results taken from patent US20170058032A1 (published 2017).
These are yes or no findings as the source states them, for the method shown. Some binding calls cover weakened binding; strength is not graded here.

Sequences of proteins named here, by UniProt entry; tags and fusion partners are left off. A change or cut given only in a name is not applied to a line headed by its entry.
UniProt P40259: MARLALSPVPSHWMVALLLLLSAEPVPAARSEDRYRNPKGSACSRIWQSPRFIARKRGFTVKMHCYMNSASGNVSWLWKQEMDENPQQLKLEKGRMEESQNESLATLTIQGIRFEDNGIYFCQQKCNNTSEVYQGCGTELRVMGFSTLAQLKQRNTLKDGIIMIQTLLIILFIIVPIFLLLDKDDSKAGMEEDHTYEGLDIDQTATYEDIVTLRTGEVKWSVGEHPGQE

Target: extracellular domain of human CD79b (huCD79becd) (human) (UniProt P40259)
Assay: phage selection on plate-bound antigen

binding | Binder
binds | huMA79b graft variant, SEQ ID NO: 55 (Fab, name in Kabat numbering, V domains shown) VH: EVQLVESGGGLVQPGGSLRLSCAASGYPFRSYWIQWVRQAPGKGLEWVGEILPGGGDTNYNEIFKGRFTISADTSKNTAYLQMNSLRAEDTAVYYCTRRVPVYFDYWGQGTLVTVSS VL: DIQMTQSPSSLSASVGDRVTITCKASQSVDYDGDSFLNWYQQKPGKAPKLLIYAASNLESGVPSRFSGSGSGTDFTLTISSLQPEDFATYYCQQSNEDPLTFGQGTKVEIKR
binds | huMA79b graft variant, SEQ ID NO: 77 (Fab, name in Kabat numbering, V domains shown) VH: EVQLVESGGGLVQPGGSLRLSCAASGYPFTRYWIEWVRQAPGKGLEWVGEILPGGGDTNYNEIFKGRFTISADTSKNTAYLQMNSLRAEDTAVYYCTRRVPVYFDYWGQGTLVTVSS VL: DIQMTQSPSSLSASVGDRVTITCKASQSVDYDGDSFLNWYQQKPGKAPKLLIYAASNLESGVPSRFSGSGSGTDFTLTISSLQPEDFATYYCQQSNEDPLTFGQGTKVEIKR
binds | huMA79b graft variant, SEQ ID NO: 75 (Fab, name in Kabat numbering, V domains shown) VH: EVQLVESGGGLVQPGGSLRLSCAASGYSFRRYWIEWVRQAPGKGLEWVGEILPGGGDTNYNEIFKGRFTISADTSKNTAYLQMNSLRAEDTAVYYCTRRVPVYFDYWGQGTLVTVSS VL: DIQMTQSPSSLSASVGDRVTITCKASQSVDYDGDSFLNWYQQKPGKAPKLLIYAASNLESGVPSRFSGSGSGTDFTLTISSLQPEDFATYYCQQSNEDPLTFGQGTKVEIKR
binds | huMA79b graft variant, SEQ ID NO: 73 (Fab, name in Kabat numbering, V domains shown) VH: EVQLVESGGGLVQPGGSLRLSCAASGYSFRSYWINWVRQAPGKGLEWVGEILPGGGDTNYNEIFKGRFTISADTSKNTAYLQMNSLRAEDTAVYYCTRRVPVYFDYWGQGTLVTVSS VL: DIQMTQSPSSLSASVGDRVTITCKASQSVDYDGDSFLNWYQQKPGKAPKLLIYAASNLESGVPSRFSGSGSGTDFTLTISSLQPEDFATYYCQQSNEDPLTFGQGTKVEIKR
binds | huMA79b graft variant, SEQ ID NO: 59 (Fab, name in Kabat numbering, V domains shown) VH: EVQLVESGGGLVQPGGSLRLSCAASGYSFKSYWIEWVRQAPGKGLEWVGEILPGGGDTNYNEIFKGRFTISADTSKNTAYLQMNSLRAEDTAVYYCTRRVPVYFDYWGQGTLVTVSS VL: DIQMTQSPSSLSASVGDRVTITCKASQSVDYDGDSFLNWYQQKPGKAPKLLIYAASNLESGVPSRFSGSGSGTDFTLTISSLQPEDFATYYCQQSNEDPLTFGQGTKVEIKR
binds | huMA79b graft variant, SEQ ID NO: 62 (Fab, name in Kabat numbering, V domains shown) VH: EVQLVESGGGLVQPGGSLRLSCAASGYPFGRYWVNWVRQAPGKGLEWVGEILPGGGDTNYNEIFKGRFTISADTSKNTAYLQMNSLRAEDTAVYYCTRRVPVYFDYWGQGTLVTVSS VL: DIQMTQSPSSLSASVGDRVTITCKASQSVDYDGDSFLNWYQQKPGKAPKLLIYAASNLESGVPSRFSGSGSGTDFTLTISSLQPEDFATYYCQQSNEDPLTFGQGTKVEIKR
binds | huMA79b graft variant, SEQ ID NO: 74 (Fab, name in Kabat numbering, V domains shown) VH: EVQLVESGGGLVQPGGSLRLSCAASGYSFRRYWINWVRQAPGKGLEWVGEILPGGGDTNYNEIFKGRFTISADTSKNTAYLQMNSLRAEDTAVYYCTRRVPVYFDYWGQGTLVTVSS VL: DIQMTQSPSSLSASVGDRVTITCKASQSVDYDGDSFLNWYQQKPGKAPKLLIYAASNLESGVPSRFSGSGSGTDFTLTISSLQPEDFATYYCQQSNEDPLTFGQGTKVEIKR
binds | huMA79b graft variant, SEQ ID NO: 68 (Fab, name in Kabat numbering, V domains shown) VH: EVQLVESGGGLVQPGGSLRLSCAASGYGFTSYWISWVRQAPGKGLEWVGEILPGGGDTNYNEIFKGRFTISADTSKNTAYLQMNSLRAEDTAVYYCTRRVPVYFDYWGQGTLVTVSS VL: DIQMTQSPSSLSASVGDRVTITCKASQSVDYDGDSFLNWYQQKPGKAPKLLIYAASNLESGVPSRFSGSGSGTDFTLTISSLQPEDFATYYCQQSNEDPLTFGQGTKVEIKR
binds | huMA79b graft variant, SEQ ID NO: 69 (Fab, name in Kabat numbering, V domains shown) VH: EVQLVESGGGLVQPGGSLRLSCAASGYTFTSYWLSWVRQAPGKGLEWVGEILPGGGDTNYNEIFKGRFTISADTSKNTAYLQMNSLRAEDTAVYYCTRRVPVYFDYWGQGTLVTVSS VL: DIQMTQSPSSLSASVGDRVTITCKASQSVDYDGDSFLNWYQQKPGKAPKLLIYAASNLESGVPSRFSGSGSGTDFTLTISSLQPEDFATYYCQQSNEDPLTFGQGTKVEIKR
binds | huMA79b graft variant, SEQ ID NO: 64 (Fab, name in Kabat numbering, V domains shown) VH: EVQLVESGGGLVQPGGSLRLSCAASGYPFTSYWIQWVRQAPGKGLEWVGEILPGGGDTNYNEIFKGRFTISADTSKNTAYLQMNSLRAEDTAVYYCTRRVPVYFDYWGQGTLVTVSS VL: DIQMTQSPSSLSASVGDRVTITCKASQSVDYDGDSFLNWYQQKPGKAPKLLIYAASNLESGVPSRFSGSGSGTDFTLTISSLQPEDFATYYCQQSNEDPLTFGQGTKVEIKR
binds | huMA79b graft variant, SEQ ID NO: 70 (S30T) (Fab, name in Kabat numbering, V domains shown) VH: EVQLVESGGGLVQPGGSLRLSCAASGYTFTSYWIEWVRQAPGKGLEWVGEILPGGGDTNYNEIFKGRFTISADTSKNTAYLQMNSLRAEDTAVYYCTRRVPVYFDYWGQGTLVTVSS VL: DIQMTQSPSSLSASVGDRVTITCKASQSVDYDGDSFLNWYQQKPGKAPKLLIYAASNLESGVPSRFSGSGSGTDFTLTISSLQPEDFATYYCQQSNEDPLTFGQGTKVEIKR
binds | huMA79b graft variant, SEQ ID NO: 71 (Fab, name in Kabat numbering, V domains shown) VH: EVQLVESGGGLVQPGGSLRLSCAASGYTFSGYWINWVRQAPGKGLEWVGEILPGGGDTNYNEIFKGRFTISADTSKNTAYLQMNSLRAEDTAVYYCTRRVPVYFDYWGQGTLVTVSS VL: DIQMTQSPSSLSASVGDRVTITCKASQSVDYDGDSFLNWYQQKPGKAPKLLIYAASNLESGVPSRFSGSGSGTDFTLTISSLQPEDFATYYCQQSNEDPLTFGQGTKVEIKR
binds | huMA79b graft variant, SEQ ID NO: 63 (Fab, name in Kabat numbering, V domains shown) VH: EVQLVESGGGLVQPGGSLRLSCAASGYTFKKYWIEWVRQAPGKGLEWVGEILPGGGDTNYNEIFKGRFTISADTSKNTAYLQMNSLRAEDTAVYYCTRRVPVYFDYWGQGTLVTVSS VL: DIQMTQSPSSLSASVGDRVTITCKASQSVDYDGDSFLNWYQQKPGKAPKLLIYAASNLESGVPSRFSGSGSGTDFTLTISSLQPEDFATYYCQQSNEDPLTFGQGTKVEIKR
binds | huMA79b graft variant, SEQ ID NO: 65 (Fab, name in Kabat numbering, V domains shown) VH: EVQLVESGGGLVQPGGSLRLSCAASGYPFRRYWIEWVRQAPGKGLEWVGEILPGGGDTNYNEIFKGRFTISADTSKNTAYLQMNSLRAEDTAVYYCTRRVPVYFDYWGQGTLVTVSS VL: DIQMTQSPSSLSASVGDRVTITCKASQSVDYDGDSFLNWYQQKPGKAPKLLIYAASNLESGVPSRFSGSGSGTDFTLTISSLQPEDFATYYCQQSNEDPLTFGQGTKVEIKR
binds | huMA79b graft variant, SEQ ID NO: 76 (Fab, name in Kabat numbering, V domains shown) VH: EVQLVESGGGLVQPGGSLRLSCAASGYSFPSYWLQWVRQAPGKGLEWVGEILPGGGDTNYNEIFKGRFTISADTSKNTAYLQMNSLRAEDTAVYYCTRRVPVYFDYWGQGTLVTVSS VL: DIQMTQSPSSLSASVGDRVTITCKASQSVDYDGDSFLNWYQQKPGKAPKLLIYAASNLESGVPSRFSGSGSGTDFTLTISSLQPEDFATYYCQQSNEDPLTFGQGTKVEIKR
binds | huMA79b graft variant, SEQ ID NO: 79 (Fab, name in Kabat numbering, V domains shown) VH: EVQLVESGGGLVQPGGSLRLSCAASGYPFRSYWISWVRQAPGKGLEWVGEILPGGGDTNYNEIFKGRFTISADTSKNTAYLQMNSLRAEDTAVYYCTRRVPVYFDYWGQGTLVTVSS VL: DIQMTQSPSSLSASVGDRVTITCKASQSVDYDGDSFLNWYQQKPGKAPKLLIYAASNLESGVPSRFSGSGSGTDFTLTISSLQPEDFATYYCQQSNEDPLTFGQGTKVEIKR
binds | huMA79b graft variant, SEQ ID NO: 78 (Fab, name in Kabat numbering, V domains shown) VH: EVQLVESGGGLVQPGGSLRLSCAASGYPFSGYWIEWVRQAPGKGLEWVGEILPGGGDTNYNEIFKGRFTISADTSKNTAYLQMNSLRAEDTAVYYCTRRVPVYFDYWGQGTLVTVSS VL: DIQMTQSPSSLSASVGDRVTITCKASQSVDYDGDSFLNWYQQKPGKAPKLLIYAASNLESGVPSRFSGSGSGTDFTLTISSLQPEDFATYYCQQSNEDPLTFGQGTKVEIKR
binds | huMA79b graft variant, SEQ ID NO: 72 (Fab, name in Kabat numbering, V domains shown) VH: EVQLVESGGGLVQPGGSLRLSCAASGYTFRRYWINWVRQAPGKGLEWVGEILPGGGDTNYNEIFKGRFTISADTSKNTAYLQMNSLRAEDTAVYYCTRRVPVYFDYWGQGTLVTVSS VL: DIQMTQSPSSLSASVGDRVTITCKASQSVDYDGDSFLNWYQQKPGKAPKLLIYAASNLESGVPSRFSGSGSGTDFTLTISSLQPEDFATYYCQQSNEDPLTFGQGTKVEIKR
binds | huMA79b graft variant, SEQ ID NO: 61 (Fab, name in Kabat numbering, V domains shown) VH: EVQLVESGGGLVQPGGSLRLSCAASGYYFTSYWIEWVRQAPGKGLEWVGEILPGGGDTNYNEIFKGRFTISADTSKNTAYLQMNSLRAEDTAVYYCTRRVPVYFDYWGQGTLVTVSS VL: DIQMTQSPSSLSASVGDRVTITCKASQSVDYDGDSFLNWYQQKPGKAPKLLIYAASNLESGVPSRFSGSGSGTDFTLTISSLQPEDFATYYCQQSNEDPLTFGQGTKVEIKR
binds | huMA79b graft variant, SEQ ID NO: 58 (Fab, name in Kabat numbering, V domains shown) VH: EVQLVESGGGLVQPGGSLRLSCAASGYTFNRYWINWVRQAPGKGLEWVGEILPGGGDTNYNEIFKGRFTISADTSKNTAYLQMNSLRAEDTAVYYCTRRVPVYFDYWGQGTLVTVSS VL: DIQMTQSPSSLSASVGDRVTITCKASQSVDYDGDSFLNWYQQKPGKAPKLLIYAASNLESGVPSRFSGSGSGTDFTLTISSLQPEDFATYYCQQSNEDPLTFGQGTKVEIKR
binds | huMA79b graft variant, SEQ ID NO: 66 (Fab, name in Kabat numbering, V domains shown) VH: EVQLVESGGGLVQPGGSLRLSCAASGYPVGRYWISWVRQAPGKGLEWVGEILPGGGDTNYNEIFKGRFTISADTSKNTAYLQMNSLRAEDTAVYYCTRRVPVYFDYWGQGTLVTVSS VL: DIQMTQSPSSLSASVGDRVTITCKASQSVDYDGDSFLNWYQQKPGKAPKLLIYAASNLESGVPSRFSGSGSGTDFTLTISSLQPEDFATYYCQQSNEDPLTFGQGTKVEIKR
binds | huMA79b graft variant, SEQ ID NO: 56 (Fab, name in Kabat numbering, V domains shown) VH: EVQLVESGGGLVQPGGSLRLSCAASGYPFTSYWINWVRQAPGKGLEWVGEILPGGGDTNYNEIFKGRFTISADTSKNTAYLQMNSLRAEDTAVYYCTRRVPVYFDYWGQGTLVTVSS VL: DIQMTQSPSSLSASVGDRVTITCKASQSVDYDGDSFLNWYQQKPGKAPKLLIYAASNLESGVPSRFSGSGSGTDFTLTISSLQPEDFATYYCQQSNEDPLTFGQGTKVEIKR
